Data source: PubChem BioAssay AID1259405 (NCATS, 2018)
Aim: 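Silenced genes that increase secreted GFP made by CHO cells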 (primary screen). System: Chinese hamster CHO-K1 ovary cells with stable secreted eGFP expression. Reagent: single siRNA against mouse genes, 0.8 pmol siRNA per well (2 µl of 400 nM stock). Time to read-out: 3 days. Detection: 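Per-well intracellular GFP measured by laser scanning cytometry, plus viability from ATP luminescence, each relative to plate median of non-targeting control wells, in %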. Scale: GFP, % of control: higher = more GFP per well, higher productivity; viability (ATP), % of control: higher = more viable cells (more ATP). Call rule: 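a knock-down is called active if GFP reaches 120% or more of non-targeting control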.
The deposit covers about 50,000 reagents; this is a part drawn at random. About 4,000 of them (8%) were called active. 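Mouse siRNA library applied to hamster cells; one well for each siRNA.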 Reagents against one gene are numbered here.

The first 9 records as a preview:
Target gene,reagent no.,"GFP, % of control","viability (ATP), % of control",Call
Il22ra2 (GeneID 237310),1,109,68.6,inactive
Il22ra2 (GeneID 237310),2,119,74.4,inactive
Il22ra2 (GeneID 237310),3,65.4,78.6,inactive
Capn7 (GeneID 12339),1,82.4,100,inactive
Capn7 (GeneID 12339),2,91.5,103,inactive
Capn7 (GeneID 12339),3,45.6,45,inactive
Prss37 (GeneID 67690),1,155,136,active
Prss37 (GeneID 67690),2,65.1,76.8,inactive
Prss37 (GeneID 67690),3,58,95.2,inactive

Results, repeating the preview:
Target gene,reagent no.,"GFP, % of control","viability (ATP), % of control",Call
Il22ra2 (GeneID 237310),1,109,68.6,inactive
Il22ra2 (GeneID 237310),2,119,74.4,inactive
Il22ra2 (GeneID 237310),3,65.4,78.6,inactive
Capn7 (GeneID 12339),1,82.4,100,inactive
Capn7 (GeneID 12339),2,91.5,103,inactive
Capn7 (GeneID 12339),3,45.6,45,inactive
Prss37 (GeneID 67690),1,155,136,active
Prss37 (GeneID 67690),2,65.1,76.8,inactive
Prss37 (GeneID 67690),3,58,95.2,inactive
Ret (GeneID 19713),1,160,84.7,active
Ret (GeneID 19713),2,101,85.7,inactive
Ret (GeneID 19713),3,51.1,49.4,inactive
Edem1 (GeneID 192193),1,78.8,87.6,inactive
Edem1 (GeneID 192193),2,90.9,84.3,inactive
Edem1 (GeneID 192193),3,94.7,49.5,inactive
Mob2 (GeneID 101513),1,57,85.2,inactive
Mob2 (GeneID 101513),2,81.7,72.1,inactive
Ppa1 (GeneID 67895),1,114,109,inactive
Ppa1 (GeneID 67895),2,57.1,75.5,inactive
Ppa1 (GeneID 67895),3,74.2,93.8,inactive
Cdk5rap1 (GeneID 66971),1,73.9,83.4,inactive
Cdk5rap1 (GeneID 66971),2,75.2,78.2,inactive
Cdk5rap1 (GeneID 66971),3,70.8,103,inactive
Wnt9a (GeneID 216795),1,61.2,56,inactive
Wnt9a (GeneID 216795),2,112,71.1,inactive
Wnt9a (GeneID 216795),3,78.2,64.4,inactive
Habp2 (GeneID 226243),1,111,83.4,inactive
Habp2 (GeneID 226243),2,76.9,84.5,inactive
Adam19 (GeneID 11492),1,75.7,62,inactive
Adam19 (GeneID 11492),2,151,103,active
Adam19 (GeneID 11492),3,99.1,99,inactive
Slc13a2 (GeneID 20500),1,93.9,105,inactive
Slc13a2 (GeneID 20500),2,44.8,64.6,inactive
Slc13a2 (GeneID 20500),3,73.8,78,inactive
Or1ad6 (GeneID 258912),1,64.2,82.5,inactive
Or1ad6 (GeneID 258912),2,53.6,76.4,inactive
Or1ad6 (GeneID 258912),3,47,53.7,inactive
Isoc2b (GeneID 67441),1,52.9,61.4,inactive
Isoc2b (GeneID 67441),2,91.9,75.3,inactive
Isoc2b (GeneID 67441),3,77.5,54.6,inactive
Or5b101 (GeneID 258695),1,36.1,32.7,inactive
Or5b101 (GeneID 258695),2,67.8,91.6,inactive
Or5b101 (GeneID 258695),3,90.3,58.2,inactive
Trex1 (GeneID 22040),1,33.1,43.4,inactive
Trex1 (GeneID 22040),2,58.1,83.8,inactive
Trex1 (GeneID 22040),3,75,57.4,inactive
Aoc3 (GeneID 11754),1,93.1,106,inactive
Aoc3 (GeneID 11754),2,67,55.9,inactive
Aoc3 (GeneID 11754),3,64.5,70.4,inactive
Tfip11 (GeneID 54723),1,78.4,69.5,inactive
Tfip11 (GeneID 54723),2,68.3,72.9,inactive
Tfip11 (GeneID 54723),3,75.2,78.9,inactive
Bend5 (GeneID 67621),1,102,85.3,inactive
Bend5 (GeneID 67621),2,54.5,29.8,inactive
Bend5 (GeneID 67621),3,88.3,83.6,inactive
Ntan1 (GeneID 18203),1,48.3,59.7,inactive
Ntan1 (GeneID 18203),2,55.7,48.6,inactive
Ntan1 (GeneID 18203),3,104,53.5,inactive
Macroh2a2 (GeneID 404634),1,73.6,86.6,inactive
Macroh2a2 (GeneID 404634),2,77.8,107,inactive
Macroh2a2 (GeneID 404634),3,47,46.3,inactive
Zc3h11a (GeneID 70579),1,84.5,78.9,inactive
Zc3h11a (GeneID 70579),2,72.2,50.5,inactive
Zc3h11a (GeneID 70579),3,82.2,44.6,inactive
Shmt2 (GeneID 108037),1,128,86.8,active
Shmt2 (GeneID 108037),2,165,144,active
Shmt2 (GeneID 108037),3,111,98.8,inactive
Shmt2 (GeneID 108037),4,113,108,inactive
Shmt2 (GeneID 108037),5,97.6,83.7,inactive
Shmt2 (GeneID 108037),6,80.4,93,inactive
Hnrnpul1 (GeneID 232989),1,39.6,69.9,inactive
Hnrnpul1 (GeneID 232989),2,83,82.1,inactive
Hnrnpul1 (GeneID 232989),3,102,88.5,inactive
Tmem19 (GeneID 67226),1,101,37.5,inactive
Tmem19 (GeneID 67226),2,114,116,inactive
Tmem19 (GeneID 67226),3,137,149,active
Tmprss11e (GeneID 243084),1,48.8,50.3,inactive
Tmprss11e (GeneID 243084),2,68.8,74.2,inactive
Tmprss11e (GeneID 243084),3,109,58.7,inactive
Cnn2 (GeneID 12798),1,61.1,51.4,inactive
Cnn2 (GeneID 12798),2,95.1,86,inactive
Cnn2 (GeneID 12798),3,127,79.2,active
Dctn3 (GeneID 53598),1,68.2,85.5,inactive
Dctn3 (GeneID 53598),2,50.2,33.6,inactive
Dctn3 (GeneID 53598),3,103,83.8,inactive
